We go through one substance from article PMC9077876.

Protein sequences, listed by entry. Tags and fused reporters are not part of them.
UniProt O15379: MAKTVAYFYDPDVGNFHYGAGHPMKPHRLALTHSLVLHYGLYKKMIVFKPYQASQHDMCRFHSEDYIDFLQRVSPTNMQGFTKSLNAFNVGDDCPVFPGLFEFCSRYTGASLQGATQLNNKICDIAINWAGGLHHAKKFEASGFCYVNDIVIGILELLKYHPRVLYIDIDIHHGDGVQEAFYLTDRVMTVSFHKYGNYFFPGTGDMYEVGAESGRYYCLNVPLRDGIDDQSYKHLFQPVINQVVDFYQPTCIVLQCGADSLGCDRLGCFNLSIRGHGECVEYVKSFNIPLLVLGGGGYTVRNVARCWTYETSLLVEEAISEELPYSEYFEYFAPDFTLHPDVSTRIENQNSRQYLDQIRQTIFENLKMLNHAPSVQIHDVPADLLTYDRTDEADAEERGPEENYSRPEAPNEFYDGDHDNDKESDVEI

The assay addresses T1, CARM1 (human (endogenous in H1299, A549 and PC9)) (UniProt Q86X55).
T1 sequence: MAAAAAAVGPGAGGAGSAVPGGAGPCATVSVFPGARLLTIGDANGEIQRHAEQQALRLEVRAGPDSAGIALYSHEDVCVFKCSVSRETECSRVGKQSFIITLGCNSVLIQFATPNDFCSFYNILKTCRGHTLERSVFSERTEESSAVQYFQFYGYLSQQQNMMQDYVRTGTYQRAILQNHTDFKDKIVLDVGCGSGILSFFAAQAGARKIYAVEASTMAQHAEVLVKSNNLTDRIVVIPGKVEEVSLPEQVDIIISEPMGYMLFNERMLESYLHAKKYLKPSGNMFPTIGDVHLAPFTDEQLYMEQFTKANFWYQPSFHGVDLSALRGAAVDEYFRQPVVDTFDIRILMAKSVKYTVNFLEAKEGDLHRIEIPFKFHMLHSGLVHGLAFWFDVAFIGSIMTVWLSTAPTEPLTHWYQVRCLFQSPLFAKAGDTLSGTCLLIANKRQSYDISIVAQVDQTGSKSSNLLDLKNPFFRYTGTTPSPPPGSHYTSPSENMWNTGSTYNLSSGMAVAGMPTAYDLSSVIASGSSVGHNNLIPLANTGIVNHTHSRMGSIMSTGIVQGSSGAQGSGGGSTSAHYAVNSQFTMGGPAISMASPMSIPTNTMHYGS
As to the kind of experiment: affinity purification with mass spectrometry; immunoprecipitation with CARM1 antibody preabsorbed to protein A- and G-Sepharose beads in H1299, A549 and PC9 cells; 2D-LC-MS/MS.

Results are given in words; binding and its absence hold for the method and conditions named. Binding seen in cells or lysates may run through a third protein. A yes stands for co-enrichment or nearness to the bait. Other partners may have been found.

For HDAC3 (from UniProt O15379 1-428), the binding result is recorded as “binds”.
